# Results reported in publication PMC3161794.
# Chains of the proteins cited; added tags and fusions are not shown.
# UniProt P27361: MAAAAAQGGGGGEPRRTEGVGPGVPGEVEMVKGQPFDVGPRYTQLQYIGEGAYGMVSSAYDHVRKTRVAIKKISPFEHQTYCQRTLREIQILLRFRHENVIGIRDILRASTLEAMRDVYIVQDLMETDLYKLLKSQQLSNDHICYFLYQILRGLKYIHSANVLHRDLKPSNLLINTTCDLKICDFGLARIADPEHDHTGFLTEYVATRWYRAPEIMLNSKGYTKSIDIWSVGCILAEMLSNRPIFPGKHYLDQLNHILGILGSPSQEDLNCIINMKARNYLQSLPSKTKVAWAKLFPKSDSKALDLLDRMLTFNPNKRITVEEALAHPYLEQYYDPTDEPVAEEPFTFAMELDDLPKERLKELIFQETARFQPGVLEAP
# UniProt P63086: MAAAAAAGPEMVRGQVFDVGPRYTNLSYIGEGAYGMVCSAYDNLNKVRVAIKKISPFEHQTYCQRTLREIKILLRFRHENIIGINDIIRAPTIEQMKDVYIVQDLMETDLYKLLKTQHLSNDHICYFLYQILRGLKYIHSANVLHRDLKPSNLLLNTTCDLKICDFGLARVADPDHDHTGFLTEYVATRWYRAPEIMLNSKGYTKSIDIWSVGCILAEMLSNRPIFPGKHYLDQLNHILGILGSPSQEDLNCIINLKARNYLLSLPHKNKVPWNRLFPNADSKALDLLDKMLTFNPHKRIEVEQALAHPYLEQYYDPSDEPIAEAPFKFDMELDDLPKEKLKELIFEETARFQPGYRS
# These are yes or no findings as the source states them, for the method shown. In cells and extracts the contact can be indirect. Some entries that bind do so weakly or less than the wild type. Where a sequence is shown, tags or fusion partners need not be part of it.
# Columns and labels:
# [1] = target: T1, FLAG-tagged mitochondrial aconitase (mAcon-FLAG) (human) (UniProt Q99798); test: co-IP; data not shown; told within the paragraph on immunoprecipitation of epitope-tagged proteins co-expressed in HEK293T cells
# T1 sequence: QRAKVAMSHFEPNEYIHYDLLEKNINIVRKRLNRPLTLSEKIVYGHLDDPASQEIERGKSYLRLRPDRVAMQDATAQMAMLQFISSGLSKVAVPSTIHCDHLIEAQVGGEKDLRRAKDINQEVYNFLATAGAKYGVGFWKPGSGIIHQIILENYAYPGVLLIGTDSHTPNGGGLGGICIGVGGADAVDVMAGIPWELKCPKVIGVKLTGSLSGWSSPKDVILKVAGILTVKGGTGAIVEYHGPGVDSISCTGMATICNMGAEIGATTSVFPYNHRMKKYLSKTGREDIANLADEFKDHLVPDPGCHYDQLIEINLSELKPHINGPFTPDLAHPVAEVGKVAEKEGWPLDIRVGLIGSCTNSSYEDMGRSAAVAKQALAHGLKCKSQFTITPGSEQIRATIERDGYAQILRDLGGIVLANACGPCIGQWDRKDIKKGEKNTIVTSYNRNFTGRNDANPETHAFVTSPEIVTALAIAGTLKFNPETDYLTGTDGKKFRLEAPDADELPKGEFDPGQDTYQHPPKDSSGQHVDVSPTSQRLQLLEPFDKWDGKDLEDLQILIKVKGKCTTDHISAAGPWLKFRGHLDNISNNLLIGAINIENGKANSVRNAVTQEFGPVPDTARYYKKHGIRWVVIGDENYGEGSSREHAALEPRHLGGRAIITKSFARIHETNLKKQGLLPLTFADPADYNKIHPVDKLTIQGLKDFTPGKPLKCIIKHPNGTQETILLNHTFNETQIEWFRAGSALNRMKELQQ
# [2] = target: T2, FLAG-tagged cytosolic aconitase (cAcon-FLAG) (human) (UniProt P21399); test: co-IP; ERK2 and FLAG-tagged aconitase coexpressed in HEK293T; NP-40 extracts incubated with M2 agarose FLAG beads 2 hours at 4°C; immunoblot for total ERK1/2 and FLAG; cells ±100 ng/ml EGF after serum starvation
# T2 sequence: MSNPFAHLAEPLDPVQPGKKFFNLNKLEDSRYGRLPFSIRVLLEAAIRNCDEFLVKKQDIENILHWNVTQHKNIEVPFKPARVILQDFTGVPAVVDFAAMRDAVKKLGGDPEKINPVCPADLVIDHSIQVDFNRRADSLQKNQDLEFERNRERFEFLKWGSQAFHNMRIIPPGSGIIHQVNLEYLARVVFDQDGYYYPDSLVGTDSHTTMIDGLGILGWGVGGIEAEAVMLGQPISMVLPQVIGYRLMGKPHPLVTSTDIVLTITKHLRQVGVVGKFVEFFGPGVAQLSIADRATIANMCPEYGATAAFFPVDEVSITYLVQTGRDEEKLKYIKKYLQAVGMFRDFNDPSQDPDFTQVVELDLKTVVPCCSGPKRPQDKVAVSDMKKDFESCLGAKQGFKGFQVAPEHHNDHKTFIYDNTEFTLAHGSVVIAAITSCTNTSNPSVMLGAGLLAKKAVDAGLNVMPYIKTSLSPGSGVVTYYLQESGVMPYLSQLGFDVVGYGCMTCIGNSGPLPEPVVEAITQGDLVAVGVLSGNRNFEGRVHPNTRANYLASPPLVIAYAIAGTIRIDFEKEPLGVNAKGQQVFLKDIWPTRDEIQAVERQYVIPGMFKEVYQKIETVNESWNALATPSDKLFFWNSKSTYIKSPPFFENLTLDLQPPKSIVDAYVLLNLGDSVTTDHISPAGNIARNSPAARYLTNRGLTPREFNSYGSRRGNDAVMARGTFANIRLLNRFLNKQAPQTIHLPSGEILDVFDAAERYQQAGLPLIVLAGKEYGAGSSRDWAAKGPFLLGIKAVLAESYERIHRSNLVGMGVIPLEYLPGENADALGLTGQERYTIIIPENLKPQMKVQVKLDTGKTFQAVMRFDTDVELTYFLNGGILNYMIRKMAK
binding [1],binding [2],Substance
binds,–,ERK1 (pcDNA3-T7-ERK1) (from UniProt P27361 1-379) (enzyme)
–,binds,ERK2 WT (pcDNA3-HA-ERK2 wt) (from UniProt P63086 1-358) (enzyme)
